Reference: PubChem BioAssay AID504786 (Drosophila RNAi Screening Center, 2011)

Aim: 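Fly genes required for HIF-dependent transcription when hypoxia is mimicked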 (primary screen)
System: Drosophila S2 cells with a stable HIF luciferase reporter
Reagents: long dsRNA against Drosophila genes, about 0.2 µg dsRNA per well of a 384-well plate
Duration: three days of knock-down, then 20 h of DFO before reading
Treatment: desferrioxamine (DFO) at 100 µM, an iron chelator that mimics hypoxia, for 20 h
Measurement: 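HIF reporter luminescence in cells given 100 µM DFO for 20 h, using the mouse ldh-a hypoxia-response element, scored as per-plate z-scores; higher means greater loss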
Direction: z-score: higher = stronger loss of HIF reporter signal
In all, the deposit lists about 21,000 reagents; below is an unselected part of those that have a named target and a result. 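Primary screen; positive scores mean lost reporter signal, so the sign may be inverted from the usual convention.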 A plus sign joins genes that one reagent is predicted to hit.

| predicted target | amplicon | z-score, replicate 1 | z-score, replicate 2 | z-score, replicate 3 | z-score, replicate 4 |
| --- | --- | --- | --- | --- | --- |
| mthl14 | DRSC07865 | -0.2 | -0.3 | – | – |
| CG18336 | DRSC06334 | -0.4 | -0.5 | – | – |
| CG8665 | DRSC03098 | -0.2 | 0.1 | – | – |
| FucTC | DRSC20966 | 0.4 | -0.1 | – | – |
| Vha14-2 | DRSC12145 | -0.3 | -0.3 | – | – |
| CG31266 | DRSC15747 | -0.3 | -1 | – | – |
| CG14082 | DRSC10086 | -0.3 | -0.4 | – | – |
| CG5160 | DRSC02821 | -0.4 | 0.2 | – | – |
| Cpr12A | DRSC19722 | -0.3 | 0.2 | – | – |
| PK2-R2 | DRSC16448 | -0.3 | -0.4 | – | – |
| CG11905 | DRSC09863 | -0.3 | -0.4 | – | – |
| CaMKI | DRSC17162 | -0.3 | -1.1 | – | – |
| MED16 | DRSC04506 | 0.7 | 0.5 | – | – |
| CG1909 | DRSC17150 | 0.2 | -0.1 | – | – |
| CG3769 | DRSC02723 | -0.3 | -0.3 | – | – |
| Gr59e | DRSC04276 | -0.1 | 0.6 | – | – |
| d-cup | DRSC14846 | 0 | 0.3 | – | – |
| Muc4B | DRSC18062 | -0.5 | -0.4 | – | – |
| Muc4B | DRSC18063 | -0.3 | -0.6 | – | – |
| neo | DRSC16316 | -0.3 | -0.7 | – | – |
| CG32225 | DRSC09657 | -0.2 | 0.3 | – | – |
| Roe1 | DRSC07534 | -0.1 | -0.5 | – | – |
| Zfrp8 | DRSC04352 | -0.1 | 0 | – | – |
| CG16826 | DRSC02527 | -0.1 | 0 | – | – |
| Doa | DRSC13892 | 0.1 | -0.5 | – | – |
| Doa | DRSC13893 | -0.2 | -0.1 | – | – |
| Doa | DRSC13895 | -0.2 | -0.3 | – | – |
| Doa | DRSC13896 | 0 | -0.5 | – | – |
| Doa | DRSC13897 | 0 | 0.1 | – | – |
| Doa | DRSC16650 | 0.2 | 0.2 | – | – |
| CG9570 | DRSC20687 | -0.5 | -0.9 | – | – |
| CG33489 | DRSC10588 | -0.3 | -0.5 | – | – |
| CG14634 | DRSC17944 | -0.2 | -0.6 | – | – |
| CG14743 | DRSC06479 | -0.3 | -0.4 | – | – |
| gcm | DRSC03536 | -0.3 | -0.2 | – | – |

Limited to “z-score, replicate 1”, for 11 of the entries above:
MED16 [DRSC04506]: 0.7
CG1909 [DRSC17150]: 0.2
CG3769 [DRSC02723]: -0.3
Gr59e [DRSC04276]: -0.1
d-cup [DRSC14846]: 0
Muc4B [DRSC18062]: -0.5
Muc4B [DRSC18063]: -0.3
neo [DRSC16316]: -0.3
CG32225 [DRSC09657]: -0.2
Roe1 [DRSC07534]: -0.1
Zfrp8 [DRSC04352]: -0.1

More entries follow.
| predicted target | amplicon | z-score, replicate 1 | z-score, replicate 2 | z-score, replicate 3 | z-score, replicate 4 |
| --- | --- | --- | --- | --- | --- |
| Cyp6a16Psi (retired record) | DRSC03307 | -0.1 | 0 | – | – |
| CG17097 | DRSC02569 | 0 | -0.2 | – | – |
| CG2267 | DRSC15435 | -0.2 | -0.2 | – | – |
| Wnt2 | DRSC05160 | 0.1 | 0 | – | – |
| Wnt2 | DRSC07574 | -0.3 | -0.5 | – | – |
| tilB | DRSC20634 | -0.5 | -0.1 | – | – |
| Polr3C | DRSC14490 | 0.9 | 0.9 | – | – |
| GatA | DRSC16956 | -0.3 | 0 | – | – |
| Utx | DRSC02872 | -0.1 | -0.2 | – | – |
| Sod2 | DRSC07554 | -0.3 | 0 | – | – |
| CG8388 | DRSC07157 | -0.2 | -0.4 | – | – |
| dpa | DRSC07604 | -0.1 | -0.2 | – | – |
| Su(var)3-9 | DRSC14484 | -0.2 | 0.3 | – | – |
| CG31008 | DRSC14028 | -0.4 | -0.4 | – | – |
| Art3 | DRSC16065 | -0.3 | -0.1 | – | – |
| CG12702 | DRSC19487 | -0.2 | 0 | – | – |
| CG14795 | DRSC18513 | 0.1 | 1.8 | – | – |
| Cep290 | DRSC08359 | -0.3 | -0.6 | – | – |
| CG12347 | DRSC14502 | -0.1 | 0.6 | – | – |
| CG12493 | DRSC08279 | -0.5 | -0.3 | – | – |
| CG7011 + Prp31 | DRSC10760 | -0.2 | -0.3 | – | – |
| CG15882 | DRSC19735 | -0.4 | -0.2 | – | – |
| CG4586 | DRSC18373 | -0.3 | -0.5 | – | – |
| CG9029 | DRSC03129 | -0.3 | -0.1 | – | – |
| CG10073 | DRSC05961 | -0.1 | -0.4 | – | – |
| w-cup | DRSC03048 | 0.1 | 0 | – | – |
| CG32814 | DRSC17670 | 0 | -0.2 | – | – |
| CG7031 | DRSC16178 | 3.1 | 0.2 | – | – |
| CG8997 | DRSC01900 | -0.3 | -0.4 | – | – |
| Rop | DRSC08693 | -0.3 | -0.5 | – | – |
| enc | DRSC08716 | -0.1 | -0.5 | – | – |
| Myd88 | DRSC06815 | -0.3 | -0.2 | – | – |
| Muc96D | DRSC13709 | -0.5 | 0.2 | -0.2 | -0.3 |
| mRpL19 | DRSC16367 | -0.4 | -0.8 | -0.7 | -0.4 |
| Npl4 | DRSC15615 | -0.3 | -0.6 | – | – |
| Npl4 | DRSC15616 | 0.3 | 1.1 | – | – |
| Pp2A-29B | DRSC03400 | -0.4 | -0.8 | – | – |
| Pal2 | DRSC04507 | -0.2 | -0.5 | – | – |
| Rab18 | DRSC18702 | -0.4 | -0.7 | – | – |
| yellow-h | DRSC17141 | -0.3 | -0.7 | – | – |
| CG8924 | DRSC20122 | 0.2 | -0.3 | – | – |
| obst-E | DRSC02128 | -0.3 | 0.5 | – | – |
| Nse4 | DRSC02239 | -0.2 | -0.3 | – | – |
| HGTX | DRSC09319 | 0.3 | 0 | – | – |
| HGTX | DRSC11181 | 0 | 0.2 | – | – |
| Rubicon | DRSC17889 | -0.4 | -0.6 | – | – |
| bic | DRSC07584 | 0.3 | 0.2 | – | – |
| Ifrd1 | DRSC00415 | 0.5 | 1.3 | – | – |
| Ifrd1 | DRSC00566 | 1.4 | 0.4 | – | – |
